Tested on: cultured rat spinal cord neurons
Experiment: sptPALM diffusion of full-length mEos4b-GlyRβ variants
Type: cell-based
Settings: for Deff, extrasynaptic (thresholded), Q1 (25% quartile) / Deff, extrasynaptic (thresholded), Q2 (median) / Deff, extrasynaptic (thresholded), Q3 (75% quartile): extrasynaptic trajectories above threshold 0.02 µm^2/s; for Explored area, extrasynaptic (thresholded), Q2 (median): extrasynaptic trajectories above threshold Deff 0.02 µm^2/s; for Deff, synaptic (thresholded), Q1 (25% quartile) / Deff, synaptic (thresholded), Q2 (median) / Deff, synaptic (thresholded), Q3 (75% quartile): synaptic trajectories above threshold 0.02 µm^2/s; for Explored area, synaptic (thresholded), Q2 (median): synaptic trajectories above threshold Deff 0.02 µm^2/s

Substance | Deff, extrasynaptic (thresholded), Q1 (25% quartile) [µm^2 * s^−1] | Deff, extrasynaptic (thresholded), Q2 (median) [µm^2 * s^−1] | Deff, extrasynaptic (thresholded), Q3 (75% quartile) [µm^2 * s^−1] | Explored area, extrasynaptic (thresholded), Q2 (median) | Deff, synaptic (thresholded), Q1 (25% quartile) [µm^2 * s^−1] | Deff, synaptic (thresholded), Q2 (median) [µm^2 * s^−1] | Deff, synaptic (thresholded), Q3 (75% quartile) [µm^2 * s^−1] | Explored area, synaptic (thresholded), Q2 (median)
GlyRβ-D407P/F408G: mEos4b-tagged full-length GlyRβ with substitution D407P and F408G | 0.04 | 0.09 | 0.20 | 1.52 10^−3 µm^2 | 0.03 | 0.04 | 0.09 | 0.86 10^−3 µm^2
GlyRβ-HI: mEos4b-tagged full-length GlyRβ with deletion Δ378–393 | 0.03 | 0.05 | 0.11 | 0.96 10^−3 µm^2 | 0.03 | 0.04 | 0.07 | 0.77 10^−3 µm^2
GlyRβ-geph^−: mEos4b-tagged full-length GlyRβ with substitution F398A and I400A | 0.05 | 0.11 | 0.22 | 1.83 10^−3 µm^2 | 0.04 | 0.09 | 0.19 | 1.51 10^−3 µm^2
GlyRβ-wt: mEos4b-tagged full-length human GlyRβ subunit | 0.03 | 0.05 | 0.11 | 0.91 10^−3 µm^2 | 0.03 | 0.04 | 0.06 | 0.73 10^−3 µm^2

From publication PMC5818551, “Sequences Flanking the Gephyrin-Binding Site of GlyRβ Tune Receptor Stabilization at Synapses” (eNeuro, 2018)
